According to US20160216259A1, “ISOTHERMAL TITRATION CALORIMETRY METHODS FOR EVALUATION OF THERMODYNAMIC BINDING PROPERTIES” (The Penn State Research Foundation, priority 2015, published 2016):
Read-outs that look alike come from different tables or passages of the source. Marks after values point to notes of the source that are not given here.

Columns and labels:
[1] = 1 mM EDTA + 4 mM BaCl2, HEPES pH 8.5, 25° C.
[2] = Tricine pH 8.5, 25° C.; for ΔH1 / ΔH2: EDTA/DPTA mixture, 99% CI in parentheses; for ΔH: real-time evaluation from data at inflection points, continuous 7.2 μL/min
Method: The pH of these solutions was adjusted to 8.5 with 1 M NaOH solution. For the single independent binding site and two independent binding sites experiments, Tricine (20 mM) was used as a buffer solution. For the competitive binding site experiment, HEPES (20 mM) was used as a buffer solution.
The titrations were performed on a NanoITC (TA Instruments, New Castle, Del.) with gold cells with a cell volume of 1 mL. ITC experiments were carried out at 25° C. and the stirring speed was 250 rpm. For the single independent binding experiment, ligand of 20 mM in 100 μL syringe and for the competitive binding site and two independent binding sites model, ligand of 10 mM in 250 μL syringe were used. The injection rate was varied 1.7-10 μL/min for the continuous injection mode under setting tab in ITCRun software. During the equilibration, mass transfer of ligand at the tip of the injection syringe reduces the integrated heat of the first injection. The first data point for the incremental injection mode and data for the initial 10 μL of injection for the continuous injection mode is excluded for data fitting with binding models due to reduced amount of the heat flow.
By changing the concentration of EDTA and DPTA in the mixture, the various binding stoichiometry of the receptor, n and m, were simulated. […] The number of injections for the incremental injection mode experiment is 40 with an injection volume of 6 μL. Injection rate for the continuous injection mode is 7.2 μL/min.
The fit for the continuous injection method was done after 0.05 mM of ligand was injected. […] The positive peaks of the binding isotherms in the raw data (top) represent the exothermic heat of binding.

[3] = continuous injection 7.2 μL/min
[4] = incremental, 40 injections of 6 μL

Row | SMILES | ΔH2 (Ba^2+ and EDTA, obtained independently by incremental injection, input for the competitive model) | ΔH (real-time evaluation from data at inflection point, continuous injection 1.7 μL/min, Tricine pH 8.5, 25° C.) | ΔH ([1]; continuous injection 10 μL/min, 99% CI in parentheses) | ΔH ([1]; incremental, 20 injections of 10 μL, 99% CI in parentheses) | ΔH ([1]; real-time evaluation from data at inflection point, continuous injection 10 μL/min) | ΔH1 [2, 3] | ΔH2 [2, 3] | ΔH1 [2, 4] | ΔH2 [2, 4] | ΔH ([2]; association of Ca^2+ and DPTA) | ΔH ([2]; association of Ca^2+ and EDTA)
1 | [Ba+2].[Cl-].[Cl-] [BaCl2, barium chloride] | -3.482 kcal/mol | -5.055 kcal/mol |  |  |  |  |  |  |  |  | 
2 | O.O.O.O.O=[N+]([O-])[O-].O=[N+]([O-])[O-].[Ca+2] [Ca(NO3)2, Calcium nitrate tetrahydrate] |  |  | −20.966 (−20.94, −20.99) kJ mol^−1 | −19.66 (−19.4, −19.9) kJ mol^−1 | -4.938 kcal/mol | −23.81 (−23.78, −23.83) kJ mol^−1 | −9.58 (−9.54, −9.62) kJ mol^−1 | −23.01 (−22.82, −23.21) kJ mol^−1 | −9.31 (−9.01, −9.40) kJ mol^−1 | −8.90^g kJ mol^−1 | −21.12^f kJ mol^−1
